For one molecule, binding results are on record in US20090142349A1.

The target of the test is cynomolgus monkey CD19 on blood B-cells (cynomolgus monkey). Kind of test: FACS staining of cynomolgus monkey blood.

No constants are given. Whether binding was seen depends on the method and setting. Some results given as binding are weak or reduced against the parent protein; the word gives no strength.

B1: human monoclonal antibody 21D4 (antibody, V domains shown)
VH: EVQLVQSGAEVKKPGESLKISCKGSGYSFSSSWIGWVRQMPGKGLEWMGIIYPDDSDTRYSPSFQGQVTISADKSIRTAYLQWSSLKASDTAMYYCARHVTMIWGVIIDFWGQGTLVTVSS
VL: AIQLTQSPSSLSASVGDRVTITCRASQGISSALAWYQQKPGKAPKLLIYDASSLESGVPSRFSGSGSGTDFTLTISSLQPEDFATYYCQQFNSYPYTFGQGTKLEIK
As to B1, the binding entry is on record as “binds”.
